No constants are given. Whether binding was seen depends on the method and setting. In cells and extracts the contact can be indirect. Some entries that bind do so weakly or less than the wild type. Tags and fused reporters may be left off the sequences shown.
Tests used:
DOG-His (human) [1] = molecular target: DOG-His (human) (UniProt Q96FW1); assay: co-immunoprecipitation from 293 cells, anti-HA IP
DOG-His (human) [2] = molecular target: DOG-His (human) (UniProt Q96FW1); assay: co-immunoprecipitation, summed up in the discussion of Example 1
DOG-His (human) [3] = molecular target: DOG-His (human) (UniProt Q96FW1); assay: co-immunoprecipitation from 293 cells (FIG. 7 legend)
DOG-His (human) [4] = molecular target: DOG-His (human) (UniProt Q96FW1); assay: two-hybrid and co-immunoprecipitation, summed up in the discussion of Example 1
DOG-His (human) [5] = molecular target: DOG-His (human) (UniProt Q96FW1); assay: co-precipitation in co-transfected HEK 293 cells after bacterial two-hybrid
DOG-His (human) [6] = molecular target: DOG-His (human) (UniProt Q96FW1); assay: co-immunoprecipitation from 293 cells with an antibody to tagged USP8

Sequences of proteins named here, by UniProt entry; tags and fusion partners are left off.
UniProt Q96FW1: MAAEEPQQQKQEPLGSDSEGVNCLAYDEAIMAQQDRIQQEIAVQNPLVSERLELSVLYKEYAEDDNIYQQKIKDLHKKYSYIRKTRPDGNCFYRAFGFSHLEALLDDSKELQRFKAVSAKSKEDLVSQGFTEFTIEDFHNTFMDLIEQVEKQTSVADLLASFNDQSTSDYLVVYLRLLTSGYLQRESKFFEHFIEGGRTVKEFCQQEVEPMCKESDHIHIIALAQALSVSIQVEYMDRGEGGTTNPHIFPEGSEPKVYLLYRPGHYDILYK

binding (DOG-His (human) [1])	binding (DOG-His (human) [2])	binding (DOG-His (human) [3])	binding (DOG-His (human) [4])	binding (DOG-His (human) [5])	binding (DOG-His (human) [6])	Binder
binds	binds	–	–	–	–	catalytically inactive USP8 (C748A), HA-tagged (enzyme, mouse, UniProt Q80U87 1-1080, looked up, not shown: small tags and cut ends) MPAVASVPKELYLSSSLKDLNKKTEVKPEKTSTKNYIHSAQKIFKTAEECRLDRDEERAYVLYMKYVAVYNLIKKRPDFKQQQDYYLSILGPANIKKAIEEAERLSESLKLRYEEAEVRKQLEEKDRREEEQLQQQKRQEMGREDSGAAAKRSVENLLDSKTKTQRINGEKSEGAAAAERGAITAKELYTMMMDKNTSLIIMDARKIQDYQHSCILDSLSVPEEAISPGVTASWIEANLSDDSKDTWKKRGSVDYVVLLDWFSSAKDLLLGTTLRSLKDALFKWESKTVLRHEPLVLEGGYENWLLCYPQFTTNAKVTPPPRSRAEEVSVSLDFTYPSLEEPVPSKLPTQMPPPPIETNEKALLVTDQDEKLRLSTQPALAGPGAAPRAEASPIIQPAPATKSVPQVDRTKKPSVKLPEDHRIKSENTDQSGRVLSDRSTKPVFPSPTTMLTDEEKARIHQETALLMEKNKQEKELWDKQQKEQKEKLRREEQERKAGKTQDADERDSTENQHKAKDGQEKKDSKQTKTEDRELSADGAQEATGTQRQSKSEHEASDAKVPVEGKRCPTSEAQKRPADVSPASVSGELNAGKAQREPLTRARSEEMGRIVPGLPLGWAKFLDPITGTFRYYHSPTNTVHMYPPEMAPSSAPPSTPPTHKVKPQVPAERDREPSKLKRSYSSPDITQALQEEEKRRPAVTPMVNRENKPPCYPKAEISRLSASQIRNLNPVFGGSGPALTGLRNLGNTAYMNSILQCLCNAPHLADYFNRNCYQDDINRSNLLGHKGEVAEEFGIIMKALWTGQYRYISPKDFKVTIGKINDQFAGSSQQDSQELLLFLMDGLHEDLNKADNRKRHKEENNEHLDDLQAAEHAWQKHKQLNESIIVALFQGQFKSTVQCLTCRRRSRTFEAFMYLSLPLASTSKCTLQDCLRLFSKEEKLTDNNRFYCSHCRARRDSLKKIEIWKLPPVLLVHLKRFSYDGRWKQKLQTSVDFPLENLDLSQYVIGPKNSLKKYNLFSVSNHYGGLDGGHYTAYCKNAARQRWFKFDDHEVSDISVSSVRSSAAYILFYTSLGPRITDVAT
–	–	binds	binds	binds	binds	HA-USP8 (enzyme, mouse, UniProt Q80U87 1-1080, looked up, not shown: small tags and cut ends) MPAVASVPKELYLSSSLKDLNKKTEVKPEKTSTKNYIHSAQKIFKTAEECRLDRDEERAYVLYMKYVAVYNLIKKRPDFKQQQDYYLSILGPANIKKAIEEAERLSESLKLRYEEAEVRKQLEEKDRREEEQLQQQKRQEMGREDSGAAAKRSVENLLDSKTKTQRINGEKSEGAAAAERGAITAKELYTMMMDKNTSLIIMDARKIQDYQHSCILDSLSVPEEAISPGVTASWIEANLSDDSKDTWKKRGSVDYVVLLDWFSSAKDLLLGTTLRSLKDALFKWESKTVLRHEPLVLEGGYENWLLCYPQFTTNAKVTPPPRSRAEEVSVSLDFTYPSLEEPVPSKLPTQMPPPPIETNEKALLVTDQDEKLRLSTQPALAGPGAAPRAEASPIIQPAPATKSVPQVDRTKKPSVKLPEDHRIKSENTDQSGRVLSDRSTKPVFPSPTTMLTDEEKARIHQETALLMEKNKQEKELWDKQQKEQKEKLRREEQERKAGKTQDADERDSTENQHKAKDGQEKKDSKQTKTEDRELSADGAQEATGTQRQSKSEHEASDAKVPVEGKRCPTSEAQKRPADVSPASVSGELNAGKAQREPLTRARSEEMGRIVPGLPLGWAKFLDPITGTFRYYHSPTNTVHMYPPEMAPSSAPPSTPPTHKVKPQVPAERDREPSKLKRSYSSPDITQALQEEEKRRPAVTPMVNRENKPPCYPKAEISRLSASQIRNLNPVFGGSGPALTGLRNLGNTCYMNSILQCLCNAPHLADYFNRNCYQDDINRSNLLGHKGEVAEEFGIIMKALWTGQYRYISPKDFKVTIGKINDQFAGSSQQDSQELLLFLMDGLHEDLNKADNRKRHKEENNEHLDDLQAAEHAWQKHKQLNESIIVALFQGQFKSTVQCLTCRRRSRTFEAFMYLSLPLASTSKCTLQDCLRLFSKEEKLTDNNRFYCSHCRARRDSLKKIEIWKLPPVLLVHLKRFSYDGRWKQKLQTSVDFPLENLDLSQYVIGPKNSLKKYNLFSVSNHYGGLDGGHYTAYCKNAARQRWFKFDDHEVSDISVSSVRSSAAYILFYTSLGPRITDVAT
